# Data as given in PubChem BioAssay AID504774 (Drosophila RNAi Screening Center, 2011)
# Purpose: 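Genes required for cells to withstand methyl methanesulphonate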 (primary screen)
# Cells: Drosophila Kc167 cells
# Reagents: long dsRNA against Drosophila genes, about 0.25 µg dsRNA per well
# Timing: about 6 days: 3 days knock-down, then 3 days with or without MMS
# Treatment: methyl methanesulphonate 0.004% (w/v) for 3 days after knock-down
# Measured: 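ATP-dependent luminescence as a measure of live cells in MMS-exposed wells, quantile normalised within each plate, with replicate values also given as a mean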
# Scale: mean viability with MMS and viability with MMS: higher = more surviving cells after MMS
# The screen tested about 23,000 reagents; below is a random part of those with a known target gene and a result. 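Values are quantile-normalised luminescence on an arbitrary scale; higher means more cells surviving MMS.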 Names joined by + are all predicted targets of the reagent.
The first 6 records, to show the layout:
target,DRSC id,mean viability with MMS,"viability with MMS, replicate 1","viability with MMS, replicate 2"
pot (papillote),DRSC19850,3.59e6,4.14e6,4.20e6
CG9458,DRSC16495,3.60e6,4.10e6,4.02e6
CG5516,DRSC15826,3.61e6,4.04e6,4.17e6
CG5516,DRSC21753,3.36e6,3.84e6,3.87e6
Nepl11 (Neprilysin-like 11),DRSC12333,3.58e6,4.04e6,4.07e6
Gr59b (Gustatory receptor 59b),DRSC04179,3.54e6,3.94e6,4.11e6

The list itself, from the start:
target,DRSC id,mean viability with MMS,"viability with MMS, replicate 1","viability with MMS, replicate 2"
pot (papillote),DRSC19850,3.59e6,4.14e6,4.20e6
CG9458,DRSC16495,3.60e6,4.10e6,4.02e6
CG5516,DRSC15826,3.61e6,4.04e6,4.17e6
CG5516,DRSC21753,3.36e6,3.84e6,3.87e6
Nepl11 (Neprilysin-like 11),DRSC12333,3.58e6,4.04e6,4.07e6
Gr59b (Gustatory receptor 59b),DRSC04179,3.54e6,3.94e6,4.11e6
CG15812,DRSC08479,3.46e6,3.88e6,3.98e6
wupA (wings up A),DRSC20385,3.65e6,4.09e6,4.16e6
wupA (wings up A),DRSC22547,3.66e6,4.09e6,4.13e6
CG17896,DRSC18502,3.52e6,3.94e6,4.07e6
Hesr (HES-related),DRSC19965,3.64e6,4.14e6,4.09e6
fru (fruitless),DRSC16951,2.95e6,3.62e6,3.60e6
fru (fruitless),DRSC16952,3.80e6,3.55e6,3.54e6
fru (fruitless),DRSC16953,3.62e6,3.99e6,3.93e6
fru (fruitless),DRSC21600,3.33e6,3.85e6,3.81e6
CG16749,DRSC15146,3.43e6,3.92e6,3.90e6
Hr38 (Hormone receptor-like in 38),DRSC03345,3.12e6,3.66e6,3.66e6
Hr38 (Hormone receptor-like in 38),DRSC23230,3.32e6,3.72e6,3.82e6
CG31360,DRSC13255,3.62e6,4.18e6,4.01e6
fz4 (frizzled 4),DRSC18780,3.46e6,3.96e6,3.89e6
SMC2 (Structural maintenance of chromosomes 2),DRSC07544,3.55e6,4.02e6,4.02e6
lola (longitudinals lacking),DRSC05220,3.25e6,3.85e6,3.85e6
lola (longitudinals lacking),DRSC05221,3.50e6,3.93e6,4.03e6
lola (longitudinals lacking),DRSC05222,3.61e6,4.10e6,4.04e6
lola (longitudinals lacking),DRSC05223,3.33e6,3.90e6,3.84e6
lola (longitudinals lacking),DRSC05224,3.57e6,3.91e6,4.15e6
lola (longitudinals lacking),DRSC06738,3.44e6,3.90e6,3.87e6
lola (longitudinals lacking),DRSC06739,3.45e6,3.97e6,3.87e6
lola (longitudinals lacking),DRSC06740,3.59e6,4.10e6,4.05e6
lola (longitudinals lacking),DRSC06741,3.44e6,3.87e6,3.95e6
lola (longitudinals lacking),DRSC06742,2.99e6,3.64e6,3.63e6
lola (longitudinals lacking),DRSC07646,3.55e6,3.90e6,4.15e6
lola (longitudinals lacking),DRSC07647,3.39e6,3.81e6,3.88e6
mtsh (mitoshell),DRSC03070,3.47e6,3.95e6,3.91e6
Prp39 (pre-mRNA processing factor 39),DRSC15133,3.35e6,3.82e6,3.79e6
CG32486,DRSC08413,3.48e6,3.91e6,3.98e6
CG32486,DRSC08488,3.53e6,3.94e6,4.06e6
CG42258,DRSC19741,3.49e6,3.90e6,3.99e6
CG42258,DRSC19783,2.98e6,3.65e6,3.69e6
CG42258,DRSC23161,3.31e6,3.78e6,3.74e6
CG12857,DRSC06197,3.49e6,4.12e6,3.93e6
CG18269,DRSC02660,3.47e6,3.97e6,3.90e6
CRIF (CR6-interacting factor),DRSC11811,3.46e6,3.84e6,4.00e6
prom (prominin),DRSC04684,3.54e6,4.02e6,4.02e6
prom (prominin),DRSC21463,3.55e6,3.96e6,4.11e6
prom (prominin),DRSC22088,3.64e6,4.16e6,4.03e6
CG11523,DRSC11669,3.72e6,4.24e6,4.13e6
Sbp2 (SECIS-binding protein 2),DRSC10766,3.60e6,4.10e6,4.06e6
CG14143,DRSC10146,3.77e6,4.13e6,4.31e6
CG15345 (retired record),DRSC18030,3.63e6,4.17e6,4.07e6
CG15345 (retired record),DRSC22712,3.53e6,4.03e6,3.98e6
CG7786,DRSC07045,3.82e6,4.34e6,4.20e6
Wdr37 (WD repeat domain 37),DRSC14500,3.49e6,4.03e6,3.88e6
CG10097 + CG10096,DRSC14189,3.76e6,4.37e6,4.17e6
CG10097 + CG10096,DRSC14190,3.57e6,3.99e6,4.09e6
eIF3h (eukaryotic translation initiation factor 3 subunit h),DRSC01995,2.90e6,3.25e6,3.11e6
CG31528,DRSC12003,3.37e6,3.92e6,3.82e6
CG11099,DRSC06034,3.55e6,4.08e6,3.97e6
CG9109,DRSC03139,3.43e6,3.82e6,3.87e6
CG12698,DRSC19485,3.52e6,4.01e6,3.97e6
CG12237,DRSC19449,3.61e6,3.90e6,4.06e6
CG12237,DRSC22256,3.56e6,4.04e6,4.01e6
b (black),DRSC03487,3.56e6,3.97e6,4.10e6
ari-2 (ariadne 2),DRSC04672,3.40e6,3.84e6,3.82e6
Cpr47Ea (Cuticular protein 47Ea),DRSC07333,3.54e6,3.93e6,3.97e6
Khc (Kinesin heavy chain),DRSC07448,3.64e6,4.08e6,4.19e6
Mpv17 (Mitochondrial inner membrane protein MPV17),DRSC17198,3.66e6,4.11e6,4.18e6
BNIP3,DRSC11761,3.72e6,4.18e6,4.16e6
